Source: article PMC10770081
Results are given in words; binding and its absence hold for the method and conditions named. Binding seen in cells or lysates may run through a third protein.

Target: Flag-tagged recombinant NAT10 truncation with the 501–758 amino acids region removed
Assay: co-IP; anti-Flag precipitation from J82 cells with Flag-tagged full-length or truncated CLIC3 or NAT10; blot for the endogenous partner; Co-IP buffer 20 mM Tris-HCl pH 7.5, 150 mM NaCl, 1 mM EDTA, 0.5% NP-40; 4 °C

B1: Chloride intracellular channel 3 (CLIC3) protein (protein, UniProt O95833 1-236)
chain: MAETKLQLFVKASEDGESVGHCPSCQRLFMVLLLKGVPFTLTTVDTRRSPDVLKDFAPGSQLPILLYDSDAKTDTLQIEDFLEETLGPPDFPSLAPRYRESNTAGNDVFHKFSAFIKNPVPAQDEALYQQLLRALARLDSYLRAPLEHELAGEPQLRESRRRFLDGDRLTLADCSLLPKLHIVDTVCAHFRQAPIPAELRGVRRYLDSAMQEKEFKYTCPHSAEILAAYRPAVHPR
Question: Which binding does the source give for B1 here?
Answer: The binding was “no binding”.
